Measurements reported in PubChem BioAssay AID602196 (INSERM, 2012).
In all, the deposit lists about 23,000 reagents; shown is an unselected part. Of all reagents, 455 (2%) are marked active. 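Active includes both protection and sensitisation; some change values fall well beyond the stated -50 to +50 range.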 Further read-outs or replicates are left out here. Not stated in the record: the amount of reagent.

Aim: 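Modifiers of cisplatin sensitivity in A549 cells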
Cell system: human A549 lung cancer cells
Reagents: siRNA pair against human genes
Duration: 48 h transfection before cisplatin; time from cisplatin to read-out not stated
Conditions: cisplatin at a dose killing half of control-siRNA cells; exact dose and duration not given
Measurement: 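Shift in cisplatin death relative to control siRNA, from -50 (all cells die) to +50 (no cells die); siRNAs harmful on their own scored 0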
Scale: two-siRNA summed score (-2 to +2): higher = both siRNAs protect from cisplatin killing; -2 means both sensitise
Rule for the call: 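siRNAs harmful alone (LDH or WST-1) get 0; others get +1 for less and -1 for more cisplatin killing; genes are active when the two siRNAs give the same sign, summing to ±2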
Meaning of the calls: active = both siRNAs shift cisplatin killing the same way; inactive = no consistent shift, or siRNA harmful alone

LOC440687
- two-siRNA summed score (-2 to +2): 0
- Call: inactive

PELI1
- two-siRNA summed score (-2 to +2): 0
- Call: inactive

LOC340527
- two-siRNA summed score (-2 to +2): 0
- Call: inactive

SERPINB12
- two-siRNA summed score (-2 to +2): 0
- Call: inactive

PTP4A1
- two-siRNA summed score (-2 to +2): 0
- Call: inactive

Reprinted from above (2 entries):
LOC340527
- two-siRNA summed score (-2 to +2): 0
- Call: inactive

SERPINB12
- two-siRNA summed score (-2 to +2): 0
- Call: inactive

The results go on.
LOC440729
- two-siRNA summed score (-2 to +2): 0
- Call: inactive

LOC389394
- two-siRNA summed score (-2 to +2): 0
- Call: inactive

BLVRB
- two-siRNA summed score (-2 to +2): 0
- Call: inactive

SLC18A2
- two-siRNA summed score (-2 to +2): 1
- Call: inactive

LOC284288
- two-siRNA summed score (-2 to +2): 1
- Call: inactive

OR10X1
- two-siRNA summed score (-2 to +2): 0
- Call: inactive

ADM
- two-siRNA summed score (-2 to +2): 0
- Call: inactive
